Measured values: patent publication US7285664B2, “Heterocyclic or benzenic derivatives of lipoic acid, their preparation and their use as medicaments” (S.C.R.A.S. Societe de Conseils de Recherches et …, priority 2000, dated 2007)
Some of these results come from one statement about several compounds together. At least one structure is not confirmed: it was looked up by name or label, or the drawing left a doubt.

Biological target: T1, neuronal constitutive NO synthase (Rattus norvegicus, UniProt P29476)
T1 construct: The reaction is initiated by adding 50 μl of homogenate; from tissue; host or cells: cerebellum of Sprague-Dawley rats (Charles River), homogenate centrifuged at 21000 g
Assay: Effects on neuronal constitutive NO synthase of a rat's cerebellum ([3H]L-arginine to [3H]L-citrulline conversion)
Type: biochemical
Conditions: rat cerebellum homogenate; conversion of [3H]L-arginine to [3H]L-citrulline; 15 minutes

## Cc1cc(N=C(N)c2cccs2)ccc1N1CCN(C(=O)NCCCCC2CCSS2)CC1 (stereo not shown) [Example 6, 4-(4-{[amino(2-thienyl)methylidene]amino}-2-methylphenyl) N-[4-(1,2-dithiolan-3-yl)butyl]-1-piperazinecarboxamide]
  IC50: < 4.5 µM
